# Measurements reported in PubChem BioAssay AID602196 (INSERM, 2012)
# Assay: 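Modifiers of cisplatin sensitivity in A549 cells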
# Cell system: human A549 lung cancer cells
# Reagents: siRNA pair against human genes
# Time to read-out: 48 h transfection before cisplatin; time from cisplatin to read-out not stated
# Treatment: cisplatin at a dose killing half of control-siRNA cells; exact dose and duration not given
# Read-out: 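Shift in cisplatin death relative to control siRNA, from -50 (all cells die) to +50 (no cells die); siRNAs harmful on their own scored 0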
# Direction: two-siRNA summed score (-2 to +2): higher = both siRNAs protect from cisplatin killing; -2 means both sensitise
# Hit rule: 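siRNAs harmful alone (LDH or WST-1) get 0; others get +1 for less and -1 for more cisplatin killing; genes are active when the two siRNAs give the same sign, summing to ±2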
# Meaning of the calls: active = both siRNAs shift cisplatin killing the same way; inactive = no consistent shift, or siRNA harmful alone
# The whole screen tested about 23,000 reagents; shown is a random part of them. 455 of all reagents (2%) were called active. 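Active includes both protection and sensitisation; some change values fall well beyond the stated -50 to +50 range.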 Entries without a mark were called inactive. Further read-outs or replicates are left out here. Not given: the amount of reagent.
gene symbol,two-siRNA summed score (-2 to +2)
CCDC170,0
LOC389866,1
ZNF683,0
ZBTB47,0
LOC389248,0
DRG1,0
SNPH,1
RPL14P1,0
C3,0
LRBA,1
ULBP3,0
OTOP1,0
RANBP17,0
LINC00698,0
STARD8,-1
GPR25,0
FUS,0
VWA5A,0
AOPEP,0
AARS2,-1
LOC392583,0
LINC00298,1
LLPH,0
FLOT2,-2 (active)
LOC441054,0
ZNF394,0
UNC13B,0
ZNF75A,1
LOC339077,0
FNBP4,0
SCO2,0
CLEC18C,0
LOC440315,0
MC5R,0
UNC5D,-1
HOXC4,0
ADAT2,0
ELOA3P,0
PLAC8,0
OXCT2,-1
LOC442402,1
OR56A4,0
ASTL,1
LOC388787,0
LOC401072,1
LOC439947,0
PSMC4,0
SGPP1,0
AGR2,0
SH3GL2,0
CABP1,1
SLAIN1,0
PSMB4,0
BICDL1,0
LOC400736,0
LOC440560,-1
LOC440377,0

Entries listed above with an active call:
gene symbol,two-siRNA summed score (-2 to +2)
FLOT2,-2 (active)
